The target in the assay is T1, Histone PARylation Factor 1 (HPF1) (human) (UniProt Q9NWY4).
T1 sequence: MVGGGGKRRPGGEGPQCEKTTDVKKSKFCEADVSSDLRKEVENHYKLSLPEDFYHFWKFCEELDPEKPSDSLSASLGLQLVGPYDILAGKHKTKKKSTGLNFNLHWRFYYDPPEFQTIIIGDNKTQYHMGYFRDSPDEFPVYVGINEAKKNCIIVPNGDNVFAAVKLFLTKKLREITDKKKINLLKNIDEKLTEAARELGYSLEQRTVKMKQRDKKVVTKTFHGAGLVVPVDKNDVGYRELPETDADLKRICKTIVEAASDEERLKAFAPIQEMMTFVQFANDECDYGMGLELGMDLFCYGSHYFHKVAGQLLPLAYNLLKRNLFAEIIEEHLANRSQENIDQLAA
Nature of the assay: SPR; HPF1 immobilised on a CM5 chip by amine coupling; PARP1 (800 nM) flowed over in the presence of DNA (800 nM) and EB47 (5 µM); 25 mM HEPES pH 7.4, 250 mM NaCl, 0.1 mM TCEP, 1 mM EDTA, 0.05% Tween20; both purified. In general terms: In SPR one partner is held on a chip, and binding of the other changes the refractive index at the surface.

Amino acid sequences for entries named in this document (tags omitted). A change or cut given only in a name is not applied to a line headed by its entry.
UniProt P09874: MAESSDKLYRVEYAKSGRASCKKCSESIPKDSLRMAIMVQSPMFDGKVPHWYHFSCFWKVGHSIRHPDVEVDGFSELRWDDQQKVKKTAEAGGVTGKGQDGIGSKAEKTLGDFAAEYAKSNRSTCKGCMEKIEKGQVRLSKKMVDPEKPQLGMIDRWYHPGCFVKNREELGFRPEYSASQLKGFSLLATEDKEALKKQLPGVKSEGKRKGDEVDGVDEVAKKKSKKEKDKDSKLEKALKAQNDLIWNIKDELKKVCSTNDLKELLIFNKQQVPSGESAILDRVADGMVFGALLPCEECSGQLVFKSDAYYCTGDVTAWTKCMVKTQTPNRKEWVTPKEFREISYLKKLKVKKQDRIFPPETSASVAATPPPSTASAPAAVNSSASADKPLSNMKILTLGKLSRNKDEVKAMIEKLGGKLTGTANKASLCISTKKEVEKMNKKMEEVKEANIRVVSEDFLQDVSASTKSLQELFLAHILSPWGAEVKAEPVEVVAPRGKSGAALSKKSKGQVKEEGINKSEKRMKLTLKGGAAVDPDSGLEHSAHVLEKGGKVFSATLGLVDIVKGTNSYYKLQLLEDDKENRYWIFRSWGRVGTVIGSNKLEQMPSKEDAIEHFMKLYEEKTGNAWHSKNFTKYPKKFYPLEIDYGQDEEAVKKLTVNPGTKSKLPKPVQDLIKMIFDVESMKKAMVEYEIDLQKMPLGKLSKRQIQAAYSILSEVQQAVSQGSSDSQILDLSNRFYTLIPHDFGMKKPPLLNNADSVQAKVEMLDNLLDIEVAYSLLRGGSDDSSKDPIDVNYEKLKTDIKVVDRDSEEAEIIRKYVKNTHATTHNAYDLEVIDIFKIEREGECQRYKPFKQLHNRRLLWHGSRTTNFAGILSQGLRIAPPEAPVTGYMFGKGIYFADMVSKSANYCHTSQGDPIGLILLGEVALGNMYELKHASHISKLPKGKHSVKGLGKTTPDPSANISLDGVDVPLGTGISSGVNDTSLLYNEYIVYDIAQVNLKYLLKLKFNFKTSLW

Drawing on paper PMC8602370, this text covers binding for one substance.

No constants are given. Whether binding was seen depends on the method and setting. Sequences can lack the tags named with a protein.

Regarding “PARP1 H826E (from UniProt P09874 1-1014) (enzyme)”, the binding entry is “no binding (tested: 800 nM)”.
